These are yes or no findings as the source states them, for the method shown. Binding seen in cells or lysates may run through a third protein. Some binding calls cover weakened binding; strength is not graded here.
T1: lipocalin-2 (LCN2) (mouse (endogenous in C57BL/6 corpus callosum and primary astrocytes)) (UniProt P11672)
T1 sequence: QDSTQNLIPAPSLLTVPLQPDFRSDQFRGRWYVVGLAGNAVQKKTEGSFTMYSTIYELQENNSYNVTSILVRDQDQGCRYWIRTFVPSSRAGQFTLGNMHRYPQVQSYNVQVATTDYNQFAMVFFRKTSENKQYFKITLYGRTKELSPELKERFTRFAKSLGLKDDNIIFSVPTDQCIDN

Sequences of proteins named here, by UniProt entry; tags and fusion partners are left off. Residues count along the entry.
UniProt Q91ZX7, residues 20-4545: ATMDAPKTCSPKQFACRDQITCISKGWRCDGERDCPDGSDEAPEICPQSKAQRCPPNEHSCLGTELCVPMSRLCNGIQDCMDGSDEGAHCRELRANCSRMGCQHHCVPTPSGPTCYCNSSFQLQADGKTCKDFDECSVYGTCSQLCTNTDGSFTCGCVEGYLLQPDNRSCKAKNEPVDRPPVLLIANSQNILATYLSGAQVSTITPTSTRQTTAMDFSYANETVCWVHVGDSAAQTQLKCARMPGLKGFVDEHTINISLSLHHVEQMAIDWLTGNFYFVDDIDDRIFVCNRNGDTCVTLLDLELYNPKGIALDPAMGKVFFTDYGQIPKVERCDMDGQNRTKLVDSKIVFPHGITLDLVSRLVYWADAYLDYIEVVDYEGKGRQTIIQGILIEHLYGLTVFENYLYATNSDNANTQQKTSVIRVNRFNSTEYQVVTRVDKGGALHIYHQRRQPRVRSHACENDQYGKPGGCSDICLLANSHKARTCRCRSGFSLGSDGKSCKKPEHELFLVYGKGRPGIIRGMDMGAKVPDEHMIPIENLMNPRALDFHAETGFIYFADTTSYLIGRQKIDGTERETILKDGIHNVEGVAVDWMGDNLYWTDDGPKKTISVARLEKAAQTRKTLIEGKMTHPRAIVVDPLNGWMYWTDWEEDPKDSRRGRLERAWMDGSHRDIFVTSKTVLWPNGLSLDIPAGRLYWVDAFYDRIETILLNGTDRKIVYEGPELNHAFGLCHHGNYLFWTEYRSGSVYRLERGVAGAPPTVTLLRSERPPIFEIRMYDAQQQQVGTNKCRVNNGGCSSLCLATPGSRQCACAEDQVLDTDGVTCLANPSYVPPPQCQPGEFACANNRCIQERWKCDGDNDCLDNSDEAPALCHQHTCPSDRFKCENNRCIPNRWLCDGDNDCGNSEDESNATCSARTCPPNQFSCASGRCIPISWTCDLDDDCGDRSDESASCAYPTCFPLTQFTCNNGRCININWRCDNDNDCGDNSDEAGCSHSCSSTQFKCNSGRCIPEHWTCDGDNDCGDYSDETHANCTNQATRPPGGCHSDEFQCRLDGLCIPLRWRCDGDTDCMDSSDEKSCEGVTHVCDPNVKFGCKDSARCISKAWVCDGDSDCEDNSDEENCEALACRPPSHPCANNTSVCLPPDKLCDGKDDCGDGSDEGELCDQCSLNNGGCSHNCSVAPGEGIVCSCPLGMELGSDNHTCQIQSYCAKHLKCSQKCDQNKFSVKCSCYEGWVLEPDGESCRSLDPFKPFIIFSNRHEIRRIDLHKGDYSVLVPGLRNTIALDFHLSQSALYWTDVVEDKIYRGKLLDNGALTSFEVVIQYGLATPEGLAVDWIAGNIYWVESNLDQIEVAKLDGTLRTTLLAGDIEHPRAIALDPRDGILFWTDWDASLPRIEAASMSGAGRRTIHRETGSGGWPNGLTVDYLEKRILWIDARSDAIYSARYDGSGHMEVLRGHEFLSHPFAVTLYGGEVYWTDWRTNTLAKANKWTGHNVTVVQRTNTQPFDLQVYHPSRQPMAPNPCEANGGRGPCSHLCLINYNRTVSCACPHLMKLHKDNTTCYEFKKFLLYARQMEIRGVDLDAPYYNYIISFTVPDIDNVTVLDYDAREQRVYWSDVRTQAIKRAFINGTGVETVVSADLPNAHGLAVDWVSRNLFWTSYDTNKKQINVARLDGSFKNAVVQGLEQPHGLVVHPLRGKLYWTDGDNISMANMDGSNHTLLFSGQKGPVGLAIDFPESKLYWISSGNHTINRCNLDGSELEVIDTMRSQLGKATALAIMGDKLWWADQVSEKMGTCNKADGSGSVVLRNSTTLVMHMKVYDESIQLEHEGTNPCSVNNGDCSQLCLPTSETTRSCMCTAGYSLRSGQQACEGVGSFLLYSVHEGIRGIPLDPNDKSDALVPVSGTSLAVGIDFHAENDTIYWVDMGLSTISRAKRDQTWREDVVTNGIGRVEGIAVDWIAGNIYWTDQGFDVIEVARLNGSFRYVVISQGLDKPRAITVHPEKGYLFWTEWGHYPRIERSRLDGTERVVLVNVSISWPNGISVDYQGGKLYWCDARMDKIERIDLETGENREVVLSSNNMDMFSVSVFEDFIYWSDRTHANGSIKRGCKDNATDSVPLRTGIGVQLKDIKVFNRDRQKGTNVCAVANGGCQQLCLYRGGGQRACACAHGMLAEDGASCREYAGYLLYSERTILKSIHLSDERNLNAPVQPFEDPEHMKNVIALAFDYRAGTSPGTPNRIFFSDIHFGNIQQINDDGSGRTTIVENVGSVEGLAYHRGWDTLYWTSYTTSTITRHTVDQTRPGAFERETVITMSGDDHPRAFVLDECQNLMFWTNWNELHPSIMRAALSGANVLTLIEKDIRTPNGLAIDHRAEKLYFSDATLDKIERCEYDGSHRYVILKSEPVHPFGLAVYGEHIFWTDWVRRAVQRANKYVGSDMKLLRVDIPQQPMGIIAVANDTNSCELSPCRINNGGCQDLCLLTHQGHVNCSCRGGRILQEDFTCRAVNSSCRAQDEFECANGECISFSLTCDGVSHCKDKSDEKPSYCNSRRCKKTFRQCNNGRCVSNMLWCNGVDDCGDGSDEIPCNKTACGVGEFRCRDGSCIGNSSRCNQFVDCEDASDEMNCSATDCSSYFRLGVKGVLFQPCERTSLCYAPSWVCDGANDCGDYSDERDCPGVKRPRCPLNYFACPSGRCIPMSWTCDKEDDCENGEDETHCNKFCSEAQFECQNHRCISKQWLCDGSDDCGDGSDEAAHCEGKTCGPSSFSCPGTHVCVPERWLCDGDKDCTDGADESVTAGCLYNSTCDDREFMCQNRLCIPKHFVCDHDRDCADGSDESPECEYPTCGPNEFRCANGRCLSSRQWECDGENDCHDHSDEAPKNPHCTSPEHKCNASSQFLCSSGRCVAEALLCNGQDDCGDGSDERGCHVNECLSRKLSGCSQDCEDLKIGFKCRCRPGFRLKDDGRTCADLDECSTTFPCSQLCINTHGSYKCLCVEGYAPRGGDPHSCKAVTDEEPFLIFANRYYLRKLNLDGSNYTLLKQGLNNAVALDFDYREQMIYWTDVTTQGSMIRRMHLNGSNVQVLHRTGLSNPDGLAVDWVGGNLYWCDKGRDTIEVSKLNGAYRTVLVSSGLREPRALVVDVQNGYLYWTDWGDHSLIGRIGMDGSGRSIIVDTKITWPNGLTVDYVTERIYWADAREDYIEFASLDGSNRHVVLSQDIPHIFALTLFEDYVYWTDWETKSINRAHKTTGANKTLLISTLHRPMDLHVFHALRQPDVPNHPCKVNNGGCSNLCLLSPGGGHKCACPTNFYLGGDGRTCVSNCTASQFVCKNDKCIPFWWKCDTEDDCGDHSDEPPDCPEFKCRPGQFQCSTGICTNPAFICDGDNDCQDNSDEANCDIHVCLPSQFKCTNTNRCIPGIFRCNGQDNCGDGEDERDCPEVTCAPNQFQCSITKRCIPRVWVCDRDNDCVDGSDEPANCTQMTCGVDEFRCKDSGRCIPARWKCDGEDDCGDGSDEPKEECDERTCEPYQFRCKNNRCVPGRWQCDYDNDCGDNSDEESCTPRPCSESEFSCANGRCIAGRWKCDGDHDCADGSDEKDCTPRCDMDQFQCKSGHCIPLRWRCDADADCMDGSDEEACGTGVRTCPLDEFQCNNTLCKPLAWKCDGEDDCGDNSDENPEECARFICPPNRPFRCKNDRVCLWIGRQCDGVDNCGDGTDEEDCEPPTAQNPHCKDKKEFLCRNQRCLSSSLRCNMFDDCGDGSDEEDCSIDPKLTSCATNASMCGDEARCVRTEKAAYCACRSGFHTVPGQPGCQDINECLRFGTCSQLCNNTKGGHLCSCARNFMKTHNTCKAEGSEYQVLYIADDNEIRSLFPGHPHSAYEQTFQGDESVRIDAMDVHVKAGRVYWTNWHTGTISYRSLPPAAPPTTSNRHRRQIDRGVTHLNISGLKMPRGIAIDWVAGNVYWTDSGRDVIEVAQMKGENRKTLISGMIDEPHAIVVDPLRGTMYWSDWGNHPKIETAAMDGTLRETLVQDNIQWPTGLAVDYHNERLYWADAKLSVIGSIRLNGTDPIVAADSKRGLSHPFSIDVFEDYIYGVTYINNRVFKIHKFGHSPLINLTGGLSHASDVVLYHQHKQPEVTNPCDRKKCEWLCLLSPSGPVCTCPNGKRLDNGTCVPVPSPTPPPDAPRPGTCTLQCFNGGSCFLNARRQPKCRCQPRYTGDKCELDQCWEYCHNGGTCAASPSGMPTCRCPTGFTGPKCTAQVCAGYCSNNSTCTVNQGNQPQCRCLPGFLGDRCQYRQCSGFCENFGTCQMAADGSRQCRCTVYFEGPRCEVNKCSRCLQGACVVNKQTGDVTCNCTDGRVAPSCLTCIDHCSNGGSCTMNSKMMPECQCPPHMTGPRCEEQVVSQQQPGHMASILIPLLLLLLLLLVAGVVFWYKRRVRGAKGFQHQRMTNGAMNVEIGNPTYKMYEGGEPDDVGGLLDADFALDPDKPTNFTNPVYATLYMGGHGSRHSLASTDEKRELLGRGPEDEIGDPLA


Assays:
[1] = target: T1, lipocalin-2 (LCN2) (mouse (endogenous in C57BL/6 corpus callosum and primary astrocytes)); assay: co-IP; RIPA lysates of primary cultured mouse astrocytes, control or LPS-treated; 1 ug anti-LCN2 or anti-LRP1 antibody or control IgG overnight at 4 °C, protein A/G agarose 2 h at 4 °C; immunoblot with anti-LCN2 and anti-LRP1
[2] = target: T1, lipocalin-2 (LCN2) (mouse (endogenous in C57BL/6 corpus callosum and primary astrocytes)); assay: co-IP; RIPA lysates of the ipsilateral corpus callosum of sham and dMCAO mice; 1 ug anti-LCN2 or anti-LRP1 antibody or control IgG overnight at 4 °C, protein A/G agarose 2 h at 4 °C; immunoblot with anti-LCN2 and anti-LRP1
[3] = target: low-density lipoprotein receptor-related protein 1 (LRP1) (mouse (endogenous in C57BL/6 corpus callosum and primary astrocytes)) (UniProt Q91ZX7); assay: as above

binding [1] | binding [2] | binding [3] | Molecule
binds | binds | – | low-density lipoprotein receptor-related protein 1 (LRP1) (from UniProt Q91ZX7 20-4545)
– | – | binds | lipocalin-2 (LCN2) (protein, UniProt P11672 21-200) QDSTQNLIPAPSLLTVPLQPDFRSDQFRGRWYVVGLAGNAVQKKTEGSFTMYSTIYELQENNSYNVTSILVRDQDQGCRYWIRTFVPSSRAGQFTLGNMHRYPQVQSYNVQVATTDYNQFAMVFFRKTSENKQYFKITLYGRTKELSPELKERFTRFAKSLGLKDDNIIFSVPTDQCIDN
